This is an account of results in PMC3576372.

The chains behind the UniProt entries cited, without tags or fusion partners. Where a name states a change or a piece, a line headed by the entry shows the natural chain unless it says otherwise.
UniProt P56696: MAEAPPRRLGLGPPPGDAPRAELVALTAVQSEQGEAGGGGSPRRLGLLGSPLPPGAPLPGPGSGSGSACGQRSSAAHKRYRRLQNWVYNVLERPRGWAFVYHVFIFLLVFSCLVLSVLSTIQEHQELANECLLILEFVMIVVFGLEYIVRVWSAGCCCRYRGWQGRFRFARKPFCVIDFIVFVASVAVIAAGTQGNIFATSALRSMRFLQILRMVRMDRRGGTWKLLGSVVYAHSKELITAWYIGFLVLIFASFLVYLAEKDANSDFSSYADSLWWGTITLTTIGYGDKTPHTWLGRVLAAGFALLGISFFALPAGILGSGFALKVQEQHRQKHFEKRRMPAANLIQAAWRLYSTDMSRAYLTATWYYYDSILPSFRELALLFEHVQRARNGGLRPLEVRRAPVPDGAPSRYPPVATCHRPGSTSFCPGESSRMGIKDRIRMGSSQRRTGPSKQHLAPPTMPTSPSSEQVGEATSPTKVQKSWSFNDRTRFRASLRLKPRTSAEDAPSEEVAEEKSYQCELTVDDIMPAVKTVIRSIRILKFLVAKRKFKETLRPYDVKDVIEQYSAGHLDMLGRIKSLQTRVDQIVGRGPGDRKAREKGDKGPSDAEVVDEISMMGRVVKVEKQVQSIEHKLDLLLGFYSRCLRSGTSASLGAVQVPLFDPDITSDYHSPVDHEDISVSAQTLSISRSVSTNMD
UniProt P08238: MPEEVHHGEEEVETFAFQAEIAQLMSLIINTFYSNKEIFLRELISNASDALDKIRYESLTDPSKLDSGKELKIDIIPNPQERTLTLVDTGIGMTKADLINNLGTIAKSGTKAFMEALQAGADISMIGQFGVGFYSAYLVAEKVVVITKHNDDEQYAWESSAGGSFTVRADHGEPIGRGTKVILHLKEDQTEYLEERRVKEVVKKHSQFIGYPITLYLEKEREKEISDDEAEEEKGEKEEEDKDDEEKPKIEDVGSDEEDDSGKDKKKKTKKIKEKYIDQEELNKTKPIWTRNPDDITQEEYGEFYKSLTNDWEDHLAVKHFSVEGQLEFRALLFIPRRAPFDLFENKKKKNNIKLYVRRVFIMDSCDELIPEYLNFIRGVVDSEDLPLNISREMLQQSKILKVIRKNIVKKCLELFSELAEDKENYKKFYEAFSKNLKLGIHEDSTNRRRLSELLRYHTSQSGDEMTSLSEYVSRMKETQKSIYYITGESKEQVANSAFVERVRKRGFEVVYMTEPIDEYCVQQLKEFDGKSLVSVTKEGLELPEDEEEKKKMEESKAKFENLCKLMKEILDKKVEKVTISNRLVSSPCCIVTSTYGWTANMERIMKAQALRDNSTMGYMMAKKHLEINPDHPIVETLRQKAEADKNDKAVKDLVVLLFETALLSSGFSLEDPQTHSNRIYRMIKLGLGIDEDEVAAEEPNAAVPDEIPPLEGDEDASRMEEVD
UniProt P11142: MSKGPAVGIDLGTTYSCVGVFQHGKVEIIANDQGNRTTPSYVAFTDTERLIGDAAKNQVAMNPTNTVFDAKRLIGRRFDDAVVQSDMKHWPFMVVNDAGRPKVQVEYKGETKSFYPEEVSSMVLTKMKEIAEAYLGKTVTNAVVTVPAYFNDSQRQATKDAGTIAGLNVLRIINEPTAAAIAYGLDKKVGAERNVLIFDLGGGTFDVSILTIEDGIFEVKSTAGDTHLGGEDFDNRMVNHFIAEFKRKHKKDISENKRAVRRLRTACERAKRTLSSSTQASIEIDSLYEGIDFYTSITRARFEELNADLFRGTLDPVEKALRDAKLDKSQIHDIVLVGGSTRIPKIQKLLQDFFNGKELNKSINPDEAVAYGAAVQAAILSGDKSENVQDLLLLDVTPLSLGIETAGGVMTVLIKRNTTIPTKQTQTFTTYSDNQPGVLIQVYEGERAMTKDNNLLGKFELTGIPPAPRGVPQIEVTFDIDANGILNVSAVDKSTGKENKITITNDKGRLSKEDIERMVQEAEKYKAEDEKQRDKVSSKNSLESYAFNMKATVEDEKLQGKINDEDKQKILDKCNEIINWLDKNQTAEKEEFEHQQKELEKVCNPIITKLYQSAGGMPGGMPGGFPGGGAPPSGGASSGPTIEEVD

These are yes or no findings as the source states them, for the method shown. Binding seen in cells or lysates may run through a third protein. Some binding calls cover weakened binding; strength is not graded here.

What all share (assay): co-IP; HEK293T cells transfected with HA-KCNQ4 or vector, 24 hrs; NP40 lysis buffer; lysate with anti-HA or anti-chaperone antibody at 4°C for 16 hrs, Dynabeads Protein G, Western blot; reciprocal
Experiment [1] addresses HA-KCNQ4 (voltage-gated potassium channel KCNQ4 with a modified HA epitope in the first extracellular loop) (human) (UniProt P56696).
Experiment [2] deals with HSP90β (constitutive isoform of HSP90) (human (endogenous in HEK293T)) (UniProt P08238).
Experiment [3] has as its target HSP90α (inducible isoform of HSP90) (human (endogenous in HEK293T)) (UniProt P07900).
In experiment [4] the target is DjA1 (constitutive isoform of HSP40) (human (endogenous in HEK293T)) (UniProt P31689).
The target in experiment [5] is HSC70 (heat-shock 70kD cognate protein, constitutive isoform of HSP70) (human (endogenous in HEK293T)) (UniProt P11142).

Turning to “DjA1 (constitutive isoform of HSP40) (from UniProt P31689 1-397)”, the binding result in experiment [1] is “binds”.

On to “HSP90β (constitutive isoform of HSP90) (from UniProt P08238 1-724)”, for which the binding result in experiment [1] is “binds”.

On to “HSP90α (inducible isoform of HSP90) (from UniProt P07900-1 1-732)”, for which the binding entry in experiment [1] is “binds”.

Consider “HA-KCNQ4 (voltage-gated potassium channel KCNQ4 with a modified HA epitope in the first extracellular loop) (from UniProt P56696-1 1-695)”, for which the binding result in experiment [2], in experiment [3], in experiment [4] and in experiment [5] was “binds” each time.

On to “HSC70 (heat-shock 70kD cognate protein, constitutive isoform of HSP70) (from UniProt P11142 1-646)”, for which, in experiment [1], the binding entry was “binds”.

For the substance “HOP (heat-shock protein organizing protein) (from UniProt P31948-1 1-543)”, the binding result in experiment [1] is reported as “binds”.

As to “CHIP (C-terminal of HSP70-interacting protein) (from UniProt Q9UNE7-1 1-303)”, the binding entry in experiment [1] is “binds”.
